From patent publication US20200199528A1, “CELL CULTURE MEDIA FOR DIFFERENTIATION OF STEM CELLS INTO HEPATOCYTES” (KATHOLIEKE UNIVERSITEIT LEUVEN, priority 2017, published 2020)

Legend:
[1] = tested on: HepG2 cells
Procedure: PSC, HC3X and HC6X cells were differentiated in a 384 well format. Cells were treated with 14 different concentrations of compounds in 6 repeats. As a negative control 41 wells were left untreated. After 24 h of exposure media was aspirated and fresh media was added to the cells supplemented with […] of DRAQ 7 (Abcam; ab109202) and Hoechst dye (1/1000, Sigma, 33258) for 25 min at 37°. Cells were fixed with 4% paraformaldehyde. Imaging was done using an Operetta High-Content Imaging System (Perkin Elmer) and image analysis was performed using Harmony software (Perkin Elmer). Relative cell number was calculated as the percentage of living cells (draq7 positive amount subtracted from the Hoechst positive amount) relative to the average of living cells in the control wells. As a positive control, 2 donors of PHHs were seeded at 10 000 cells per well. Drugs were administrated after 8 hours of attachment. HepG2 cells were seeded at 40 000 cells per well. For control conditions HepG2 cells were exposed after 2 days of culture.

[2] = tested on: HC6X cells

Question: With `CCCCc1oc2ccccc2c1C(=O)c1cc(I)c(OCCN(CC)CC)c(I)c1` [amiodarone] as the compound, how does the Toxicity [1] read?
Answer: not able to pick up toxicity

Question: What about the Toxicity [2] of the same compound?
Answer: no toxicity
